Numbering of substitutions follows the chain as printed. These are yes or no findings as the source states them, for the method shown. Binding seen in cells or lysates may run through a third protein. Some results given as binding are weak or reduced against the parent protein; the word gives no strength. For part of these data: Where a sequence is shown, tags or fusion partners need not be part of it.

Sequences of proteins named here, by UniProt entry; tags and fusion partners are left off.
UniProt P78527: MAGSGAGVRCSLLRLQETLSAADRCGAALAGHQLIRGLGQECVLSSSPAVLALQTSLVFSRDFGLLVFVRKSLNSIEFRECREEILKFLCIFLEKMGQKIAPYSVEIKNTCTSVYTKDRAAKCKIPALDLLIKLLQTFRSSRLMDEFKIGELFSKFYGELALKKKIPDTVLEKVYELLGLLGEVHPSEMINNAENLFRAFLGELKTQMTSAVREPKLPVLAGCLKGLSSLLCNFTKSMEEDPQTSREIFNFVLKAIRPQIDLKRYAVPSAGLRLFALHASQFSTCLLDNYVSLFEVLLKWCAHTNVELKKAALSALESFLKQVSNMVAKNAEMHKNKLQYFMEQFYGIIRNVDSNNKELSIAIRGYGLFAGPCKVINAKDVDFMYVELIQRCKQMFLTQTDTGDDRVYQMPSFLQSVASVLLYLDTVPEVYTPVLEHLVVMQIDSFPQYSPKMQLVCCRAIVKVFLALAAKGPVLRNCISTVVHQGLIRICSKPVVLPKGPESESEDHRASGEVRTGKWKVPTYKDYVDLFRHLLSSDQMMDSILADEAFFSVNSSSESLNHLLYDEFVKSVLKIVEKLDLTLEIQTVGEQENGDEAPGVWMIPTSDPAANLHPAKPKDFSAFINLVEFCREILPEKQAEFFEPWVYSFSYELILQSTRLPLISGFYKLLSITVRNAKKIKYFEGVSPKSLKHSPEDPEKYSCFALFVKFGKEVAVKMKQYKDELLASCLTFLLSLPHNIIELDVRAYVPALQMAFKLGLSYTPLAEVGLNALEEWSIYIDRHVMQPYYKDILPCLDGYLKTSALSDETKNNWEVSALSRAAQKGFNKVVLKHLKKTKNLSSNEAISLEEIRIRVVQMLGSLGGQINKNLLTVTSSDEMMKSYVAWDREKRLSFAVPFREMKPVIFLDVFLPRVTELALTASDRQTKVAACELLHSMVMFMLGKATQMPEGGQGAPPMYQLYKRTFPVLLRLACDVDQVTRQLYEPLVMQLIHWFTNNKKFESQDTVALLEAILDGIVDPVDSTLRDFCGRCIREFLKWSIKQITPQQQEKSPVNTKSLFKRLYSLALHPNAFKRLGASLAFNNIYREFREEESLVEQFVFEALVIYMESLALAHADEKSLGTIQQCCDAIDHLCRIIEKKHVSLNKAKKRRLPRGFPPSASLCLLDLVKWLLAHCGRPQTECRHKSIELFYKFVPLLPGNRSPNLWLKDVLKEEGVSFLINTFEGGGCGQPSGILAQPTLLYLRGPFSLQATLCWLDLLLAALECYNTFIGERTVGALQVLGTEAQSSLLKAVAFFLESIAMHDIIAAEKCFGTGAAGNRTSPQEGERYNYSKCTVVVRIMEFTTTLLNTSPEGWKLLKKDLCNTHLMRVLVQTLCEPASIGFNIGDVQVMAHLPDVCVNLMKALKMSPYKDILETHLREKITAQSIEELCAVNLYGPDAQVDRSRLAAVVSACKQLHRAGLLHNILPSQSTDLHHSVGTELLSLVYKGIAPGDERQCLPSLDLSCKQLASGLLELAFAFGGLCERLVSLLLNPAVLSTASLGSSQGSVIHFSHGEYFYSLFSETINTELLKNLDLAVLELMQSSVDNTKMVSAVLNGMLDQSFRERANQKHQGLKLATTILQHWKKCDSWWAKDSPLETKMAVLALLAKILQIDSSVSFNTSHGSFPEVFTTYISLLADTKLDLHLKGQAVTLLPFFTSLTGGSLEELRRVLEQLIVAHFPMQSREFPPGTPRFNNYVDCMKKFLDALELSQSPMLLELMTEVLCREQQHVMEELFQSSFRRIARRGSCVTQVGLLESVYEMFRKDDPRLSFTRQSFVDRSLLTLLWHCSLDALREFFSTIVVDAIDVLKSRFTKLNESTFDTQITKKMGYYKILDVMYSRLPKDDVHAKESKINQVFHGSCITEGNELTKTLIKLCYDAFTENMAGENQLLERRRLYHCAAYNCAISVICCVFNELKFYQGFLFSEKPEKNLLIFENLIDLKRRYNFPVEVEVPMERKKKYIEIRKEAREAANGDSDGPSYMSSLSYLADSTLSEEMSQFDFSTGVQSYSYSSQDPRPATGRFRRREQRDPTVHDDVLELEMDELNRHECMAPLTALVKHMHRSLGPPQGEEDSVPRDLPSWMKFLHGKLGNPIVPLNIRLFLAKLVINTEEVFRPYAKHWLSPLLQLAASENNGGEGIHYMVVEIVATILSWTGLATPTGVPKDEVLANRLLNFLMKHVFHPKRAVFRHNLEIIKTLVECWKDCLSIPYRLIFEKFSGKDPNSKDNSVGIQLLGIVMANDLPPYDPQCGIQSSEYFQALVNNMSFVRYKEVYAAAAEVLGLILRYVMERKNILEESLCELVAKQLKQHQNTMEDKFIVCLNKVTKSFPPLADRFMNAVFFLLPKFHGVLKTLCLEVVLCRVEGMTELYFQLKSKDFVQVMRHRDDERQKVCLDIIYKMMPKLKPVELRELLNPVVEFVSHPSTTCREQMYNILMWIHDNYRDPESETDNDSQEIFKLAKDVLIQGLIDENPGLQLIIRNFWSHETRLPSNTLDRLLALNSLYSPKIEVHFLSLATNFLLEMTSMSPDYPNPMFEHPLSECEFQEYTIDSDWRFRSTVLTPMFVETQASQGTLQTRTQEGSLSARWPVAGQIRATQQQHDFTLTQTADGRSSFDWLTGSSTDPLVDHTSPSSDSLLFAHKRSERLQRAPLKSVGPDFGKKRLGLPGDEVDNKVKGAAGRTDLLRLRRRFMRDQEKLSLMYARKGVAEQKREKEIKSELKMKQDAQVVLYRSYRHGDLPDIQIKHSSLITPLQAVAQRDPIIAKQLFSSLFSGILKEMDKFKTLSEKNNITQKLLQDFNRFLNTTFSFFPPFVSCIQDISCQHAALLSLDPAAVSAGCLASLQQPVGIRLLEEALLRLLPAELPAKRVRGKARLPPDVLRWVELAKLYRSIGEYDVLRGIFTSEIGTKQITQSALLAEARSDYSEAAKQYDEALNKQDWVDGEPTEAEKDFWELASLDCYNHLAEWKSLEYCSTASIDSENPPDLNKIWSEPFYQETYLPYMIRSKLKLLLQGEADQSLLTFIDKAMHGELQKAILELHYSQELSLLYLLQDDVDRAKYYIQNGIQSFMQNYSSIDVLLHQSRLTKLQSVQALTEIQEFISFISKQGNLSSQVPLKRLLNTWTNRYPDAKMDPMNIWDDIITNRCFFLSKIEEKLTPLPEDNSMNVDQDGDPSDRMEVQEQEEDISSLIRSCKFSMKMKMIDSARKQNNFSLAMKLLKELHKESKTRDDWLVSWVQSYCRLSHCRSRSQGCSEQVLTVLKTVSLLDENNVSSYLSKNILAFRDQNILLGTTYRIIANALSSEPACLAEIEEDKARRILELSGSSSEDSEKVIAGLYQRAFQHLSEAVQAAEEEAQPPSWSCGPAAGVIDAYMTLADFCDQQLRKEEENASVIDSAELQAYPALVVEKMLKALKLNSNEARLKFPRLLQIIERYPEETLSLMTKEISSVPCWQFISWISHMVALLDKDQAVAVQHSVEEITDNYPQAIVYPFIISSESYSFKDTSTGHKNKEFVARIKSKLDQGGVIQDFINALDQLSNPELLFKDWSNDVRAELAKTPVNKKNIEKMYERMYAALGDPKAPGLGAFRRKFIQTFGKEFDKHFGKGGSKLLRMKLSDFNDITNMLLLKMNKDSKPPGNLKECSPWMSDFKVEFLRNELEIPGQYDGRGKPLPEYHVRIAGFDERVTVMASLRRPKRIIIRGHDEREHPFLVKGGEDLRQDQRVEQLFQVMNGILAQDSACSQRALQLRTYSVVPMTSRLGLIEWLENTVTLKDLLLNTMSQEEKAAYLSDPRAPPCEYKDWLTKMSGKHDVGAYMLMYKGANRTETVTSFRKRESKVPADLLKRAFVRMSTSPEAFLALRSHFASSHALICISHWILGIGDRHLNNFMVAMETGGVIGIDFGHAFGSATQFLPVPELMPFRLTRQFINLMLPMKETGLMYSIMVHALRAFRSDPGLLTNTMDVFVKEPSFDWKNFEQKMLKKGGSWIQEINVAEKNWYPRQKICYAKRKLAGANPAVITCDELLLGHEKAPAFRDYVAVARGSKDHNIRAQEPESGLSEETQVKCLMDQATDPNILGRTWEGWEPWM

The target in experiment [1] is T1, Flag-TRIM24 wild type (tripartite motif containing 24) (human) (UniProt O15164).
T1 sequence: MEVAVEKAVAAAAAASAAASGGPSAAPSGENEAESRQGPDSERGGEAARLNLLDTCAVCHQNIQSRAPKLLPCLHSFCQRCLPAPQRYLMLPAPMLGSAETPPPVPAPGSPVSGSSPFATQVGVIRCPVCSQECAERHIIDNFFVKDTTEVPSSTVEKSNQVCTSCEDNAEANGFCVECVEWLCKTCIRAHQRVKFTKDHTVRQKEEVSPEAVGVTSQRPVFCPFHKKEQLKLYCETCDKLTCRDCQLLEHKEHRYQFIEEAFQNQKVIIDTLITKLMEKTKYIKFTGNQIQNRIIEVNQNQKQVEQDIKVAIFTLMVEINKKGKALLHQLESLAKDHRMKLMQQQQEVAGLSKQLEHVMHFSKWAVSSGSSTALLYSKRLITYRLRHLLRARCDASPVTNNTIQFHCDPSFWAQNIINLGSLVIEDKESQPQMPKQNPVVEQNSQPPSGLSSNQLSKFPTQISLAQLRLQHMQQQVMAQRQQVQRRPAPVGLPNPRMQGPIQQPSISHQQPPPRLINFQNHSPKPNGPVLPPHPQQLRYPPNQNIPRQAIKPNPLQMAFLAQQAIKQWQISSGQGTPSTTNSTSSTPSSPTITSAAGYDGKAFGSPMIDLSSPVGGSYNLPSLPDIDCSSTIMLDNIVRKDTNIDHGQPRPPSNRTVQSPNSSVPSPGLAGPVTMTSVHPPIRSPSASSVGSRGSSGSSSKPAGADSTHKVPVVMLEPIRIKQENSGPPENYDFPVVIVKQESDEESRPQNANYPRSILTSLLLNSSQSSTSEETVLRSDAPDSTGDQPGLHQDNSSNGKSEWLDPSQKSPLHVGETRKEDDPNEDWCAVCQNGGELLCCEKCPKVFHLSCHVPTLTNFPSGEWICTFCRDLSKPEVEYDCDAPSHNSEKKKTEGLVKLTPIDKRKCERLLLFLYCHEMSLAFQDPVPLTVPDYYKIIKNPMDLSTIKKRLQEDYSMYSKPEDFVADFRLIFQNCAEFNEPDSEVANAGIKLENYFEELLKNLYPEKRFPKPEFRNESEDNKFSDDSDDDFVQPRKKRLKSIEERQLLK
As to the kind of experiment: condition: only in NHA cells lacking the HRas^V12 mutation; co-IP; NHA cells without HRas^V12, co-transfected with TRIM24, Ku70 and Ku80 constructs; lysate, Western blot. Background: In western blotting, separated proteins are transferred to a membrane and probed.

For experiment [2], the target named is T1, Flag-TRIM24 wild type (tripartite motif containing 24) (human). Nature of the experiment: co-IP; lysates of NHA/HRas^V12 cells expressing TRIM24 WT, deletion or point mutants; IP lysis buffer (20 mM Tris-HCl pH 7.5, 150 mM NaCl, 1 mM EDTA, 1% Triton X-100), 4 °C, four washes, Western blot; endogenous DNA-PK complex; some panels after NU7441 (4 µM, 24 h), Dabrafenib (40 µM, 24 h), U3 snoRNA knock-down or PHAX knock-down.

In experiment [3] the target is T2, TRIM24 S667A mutant (human) (UniProt O15164).
T2 sequence: T1 sequence with S667A
The description is as above.

In the case of “DNA-dependent protein kinase catalytic subunit (DNA-PKcs) (from UniProt P78527 1-4128) (enzyme)”, the binding result was “no binding” in experiment [1], “binds” in experiment [2] and “binds” in experiment [3].

These data come from PMC11304257.
